Measured data: PubChem BioAssay AID1053208 (Peter MacCallum Cancer Centre, 2014)

- Test: 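Synthetic lethal interactions between gene loss and doxorubicin in osteosarcoma cells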 (primary screen)
- System: mouse osteosarcoma cells, early-passage culture from an engineered mouse model of fibroblastic bone tumour
- Knock-down reagent: siRNA pool against mouse genes, 40 nM
- Timing: about 120 h (48 h before drug, then 72 h with drug)
- Conditions: doxorubicin 100 nM for 72 h, roughly 30-40% inhibitory dose
- Measurement: 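Viability read as ATP luminescence after 72 h of 100 nM doxorubicin or none, duplicate wells averaged, scaled to non-targeting siRNA, then expressed as robust z-scores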
- Scale: viability z-score with doxorubicin: higher = more viable cells under doxorubicin; viability z-score without drug: higher = more viable cells with knock-down alone
- Active means: 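a pool counts as active when its viability z-score with doxorubicin is -2 or below and its z-score without drug lies between -2 and 2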
In all, the deposit lists about 17,000 reagents; this is an unselected part. Over the whole deposit, 788 (4.7%) got an active call. 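Calls rest on z-score classes alone; an extra cut-off of viability at most 70% of control was not applied to them.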 A number with no mark means an inactive call. A reagent listed more than once was tested more than once; the source does not tell the runs apart. Not all columns of the deposit are shown.

{"target": "Faap24 (Fanconi anemia core complex associated protein 24)", "combined z-score class": "low cell count without drug only", "viability z-score with doxorubicin": 0.22, "viability z-score without drug": -3.88}
{"target": "Mtmr6 (myotubularin related protein 6)", "combined z-score class": "no change with or without drug", "viability z-score with doxorubicin": -1.35, "viability z-score without drug": -1.18}
{"target": "Golt1b (golgi transport 1B)", "combined z-score class": "no change with or without drug", "viability z-score with doxorubicin": -1.35, "viability z-score without drug": 0.51}
{"target": "Foxs1 (forkhead box S1)", "combined z-score class": "no change with or without drug", "viability z-score with doxorubicin": 0.45, "viability z-score without drug": 1.01}
{"target": "D930048N14Rik (RIKEN cDNA D930048N14 gene)", "combined z-score class": "no change with or without drug", "viability z-score with doxorubicin": 0.67, "viability z-score without drug": 0.51}
{"target": "Nsg2 (neuron specific gene family member 2)", "combined z-score class": "no change with or without drug", "viability z-score with doxorubicin": 1.01, "viability z-score without drug": 1.52}
{"target": "Slfn10 (schlafen 10)", "combined z-score class": "no change with or without drug", "viability z-score with doxorubicin": -0.45, "viability z-score without drug": -0.84}
{"target": "Myog (myogenin)", "combined z-score class": "no change with or without drug", "viability z-score with doxorubicin": 1.35, "viability z-score without drug": -0.67}
{"target": "Or10ag53 (olfactory receptor family 10 subfamily AG member 53)", "combined z-score class": "high cell count with and without drug", "viability z-score with doxorubicin": 2.25, "viability z-score without drug": 2.02}
{"target": "Gbe1 (1,4-alpha-glucan branching enzyme 1)", "combined z-score class": "no change with or without drug", "viability z-score with doxorubicin": -0.22, "viability z-score without drug": 0.17}
{"target": "Gpr173 (G-protein coupled receptor 173)", "combined z-score class": "no change with or without drug", "viability z-score with doxorubicin": 0.45, "viability z-score without drug": -1.18}
{"target": "Gpr173 (G-protein coupled receptor 173)", "combined z-score class": "no change with or without drug", "viability z-score with doxorubicin": -1.35, "viability z-score without drug": -0.67}
{"target": "Malt1 (MALT1 paracaspase)", "combined z-score class": "no change with or without drug", "viability z-score with doxorubicin": 0.67, "viability z-score without drug": 0.51}
{"target": "Vmn1r54 (vomeronasal 1 receptor 54)", "combined z-score class": "high cell count without drug only", "viability z-score with doxorubicin": 1.12, "viability z-score without drug": 2.19}

Laid out differently: results already given.
Golt1b (golgi transport 1B) → combined z-score class: no change with or without drug; viability z-score with doxorubicin: -1.35; viability z-score without drug: 0.51
Foxs1 (forkhead box S1) → combined z-score class: no change with or without drug; viability z-score with doxorubicin: 0.45; viability z-score without drug: 1.01
D930048N14Rik (RIKEN cDNA D930048N14 gene) → combined z-score class: no change with or without drug; viability z-score with doxorubicin: 0.67; viability z-score without drug: 0.51

The results go on:
{"target": "Rtl6 (retrotransposon Gag like 6)", "combined z-score class": "no change with or without drug", "viability z-score with doxorubicin": 0.11, "viability z-score without drug": 0.67}
{"target": "Khdc3 (KH domain containing 3, subcortical maternal complex member)", "combined z-score class": "no change with or without drug", "viability z-score with doxorubicin": 1.8, "viability z-score without drug": 1.18}
{"target": "Gypa (glycophorin A)", "combined z-score class": "no change with or without drug", "viability z-score with doxorubicin": -0.22, "viability z-score without drug": 0.17}
{"target": "Vps35 (VPS35 retromer complex component)", "combined z-score class": "no change with or without drug", "viability z-score with doxorubicin": 0, "viability z-score without drug": 0}
{"target": "Uba1 (ubiquitin-like modifier activating enzyme 1)", "combined z-score class": "low cell count with doxorubicin only (active)", "viability z-score with doxorubicin": -4.05, "viability z-score without drug": -1.85}
{"target": "Ska2 (spindle and kinetochore associated complex subunit 2)", "combined z-score class": "high cell count without drug only", "viability z-score with doxorubicin": 1.8, "viability z-score without drug": 2.02}
{"target": "Frrs1 (ferric-chelate reductase 1)", "combined z-score class": "high cell count with doxorubicin only", "viability z-score with doxorubicin": 2.92, "viability z-score without drug": 1.52}
{"target": "Parp16 (poly (ADP-ribose) polymerase family, member 16)", "combined z-score class": "no change with or without drug", "viability z-score with doxorubicin": -0.67, "viability z-score without drug": 0.34}
{"target": "Ccdc92 (coiled-coil domain containing 92)", "combined z-score class": "no change with or without drug", "viability z-score with doxorubicin": 0.67, "viability z-score without drug": 0}
{"target": "Ilk (integrin linked kinase)", "combined z-score class": "no change with or without drug", "viability z-score with doxorubicin": -1.35, "viability z-score without drug": -0.67}
{"target": "Alppl2 (alkaline phosphatase, placental-like 2)", "combined z-score class": "no change with or without drug", "viability z-score with doxorubicin": -1.12, "viability z-score without drug": 1.52}
{"target": "Kansl3 (KAT8 regulatory NSL complex subunit 3)", "combined z-score class": "no change with or without drug", "viability z-score with doxorubicin": 0.45, "viability z-score without drug": -0.67}
{"target": "Rp9 (retinitis pigmentosa 9 (human))", "combined z-score class": "no change with or without drug", "viability z-score with doxorubicin": 0.22, "viability z-score without drug": 1.01}
{"target": "Ppm1k (protein phosphatase 1K (PP2C domain containing))", "combined z-score class": "no change with or without drug", "viability z-score with doxorubicin": 1.35, "viability z-score without drug": -1.18}
